## Percent effect of library compounds

Mtb glucose medium: 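Whole-cell growth test on Mycobacterium tuberculosis, read after 3 days in glucose-containing 7H9 medium; the read-out is not stated. Concentration: 500 µM. The record gives no direction; compounds that gave an IC50 in retests scored well above the rest, so higher reads as more growth inhibition. About 18,000 compounds were tested under these conditions; 7.9% (about 1,400) showed 50% or more at least once.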
Mtb cholesterol medium: 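Growth of Mycobacterium tuberculosis over 4 days (cholesterol / DPPC medium with tyloxapol); the read-out is not stated. Tested at 500 µM. Higher reads as more growth inhibition (inferred: compounds with an IC50 in retests scored well above the rest). About 18,000 compounds were tested under these conditions; 5% (about 900) showed 50% or more at least once.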

Each number is a percent effect as filed. How 0% and 100% were set is not recorded. Most values in the screen are low, and negative values occur. Compounds were drawn at random from those tested, without regard to their results.

| # | SMILES | Mtb glucose medium | Mtb cholesterol medium |
|---|---|---|---|
| 1 | `Cc1cc(NC(=O)CCc2cncc(F)c2)nc(=O)[nH]1` | -4.098 | -16.1 |
| 2 | `CC(C)(CC(N)=O)NC(=O)C1CC=CC1` | 2.618 | 0.4645 |
| 3 | `C=C(C)COc1cccc(NC(=O)N(C)CCO)c1` | 45.41 | 35.94 |
| 4 | `COc1cc(C(C)=O)ccc1O` | 1.957 | -0.7345 |
| 5 | `Cn1ccnc1C(N)c1cccc(F)c1` (centres unmarked) | 37.48 | 27.77 |
| 6 | `Cc1cc(NC2(CO)CCC2)n2ncnc2n1` | -6.747 | -7.111 |
| 7 | `CCCSCCNC(=O)Nc1ccc2[nH]nnc2c1` | 38.22 | 21.36 |
| 8 | `Cc1nnc(NC(=O)N(CCO)C2CC2)s1` | 4.631 | 0.1787 |
| 9 | `O=C(NCC1(O)CCNC1)c1ccc2c(c1)OCO2` (centres unmarked) | 38.86 | 0.7571 |
| 10 | `CNCCN(C)C(=O)c1cc(F)ccc1C` | -5.903 | -9.482 |
| 11 | `CN1CC[C@H]2CN(C(=O)CCOc3ccccc3)C[C@H]21` | 12.69 | -10.09 |
| 12 | `N[C@@H]1C[C@H]1c1ccccc1F` | 0.8473 | -5.729 |
| 13 | `COc1ccccc1CC#N` | 1.219 | 15.76 |
| 14 | `CC[C@@]1(O)CCN(Cc2nc(CCOC)no2)C[C@H]1O` | -4.907 | 2.678 |
| 15 | `CN1CCCN(S(=O)(=O)c2ccc(Br)cn2)CC1` | 13.28 | 8.036 |
| 16 | `COc1ccnc(C(=O)NC2(CO)CC2)c1` | 1.074 | 4.568 |
| 17 | `NC(=O)CN1CCC(NC(=O)NCC2CCCO2)CC1` (centres unmarked) | 9.214 | -3.008 |
| 18 | `COCC1CN(C(=O)c2cnc(C(C)(C)C)s2)CCO1` (centres unmarked) | 16.92 | 10.75 |
| 19 | `CC(=O)c1cnccc1C` | -3.32 | -10.78 |
| 20 | `Cc1cc(C(=O)NC2CC2)cc(S(=O)(=O)N(C)C)c1C` | 3.153 | -5.121 |
| 21 | `COC(=O)c1ccnc(NC(=O)CCc2ccco2)c1` | 28.05 | -4.875 |
| 22 | `CCCn1cc(S(=O)(=O)N2C[C@H](C3CC3)[C@@H](N)C2)cn1` | 5.609 | 0.4356 |
| 23 | `CCCC1NCCNC1=O` (centres unmarked) | 1.428 | 6.681 |
| 24 | `CC(C)n1cc(C(=O)NCCC2CN(C)CCO2)cn1` (centres unmarked) | 3.467 | -0.01098 |
| 25 | `Cc1cccc(NC(=O)N(C)CC2CCCOC2)n1` (centres unmarked) | 12.65 | -6.507 |
| 26 | `CCC(C)(C)NC(=O)c1nnn(-c2ccccc2)c1C` | 70.17 | 66.15 |
| 27 | `NC(c1ccc(Cl)cc1)c1ncon1` (centres unmarked) | 21.85 | 13.46 |
| 28 | `CN(CCN1CCCC1)S(=O)(=O)c1ccccc1` | 59.31 | 17.19 |
| 29 | `Cc1cccc(NC(=O)NCc2ccnn2C)n1` | 21.56 | -7.1 |
| 30 | `c1ccc(N2CCN(c3ncccn3)CC2)nc1` | -15.24 | -35.58 |
| 31 | `OCC(O)CSCCc1ccccc1Cl` (centres unmarked) | 57.09 | 54.41 |
| 32 | `COc1ccc(Cn2[nH]ccc2=N)cc1` | 20.1 | 7.642 |
| 33 | `O=C(NCc1cccnc1)C1COc2ccccc2O1` (centres unmarked) | 54.77 | 31.66 |
| 34 | `Nc1ncccc1C(=O)NC1CCCCC1` | 0.8156 | -7.906 |
| 35 | `CC[C@@H](N)c1ccc(F)cc1` | 13.06 | 5.722 |
| 36 | `c1ccc(CN2CCO[C@@H]3CNC[C@@H]32)cc1` | 19.46 | 3.307 |
| 37 | `CNC(=O)NC(=O)CCN1CCCCC1` | 43.52 | 12.45 |
| 38 | `O=C(NCCCc1ncc[nH]1)[C@H]1CCC[C@H](O)C1` | -5.329 | -0.0191 |
| 39 | `COc1cc(CN)ccc1OCC(F)(F)F` | 9.231 | -2.944 |
| 40 | `Cc1cc2cc(C(=O)N3CCS(=O)(=O)CC3)ccc2o1` | 20.87 | 8.919 |
| 41 | `CN1CCN(CC(N)=O)CC1` | -3.408 | -8.577 |
| 42 | `CC(Cc1ccco1)NC(=O)C1CCN(C(N)=O)CC1` (centres unmarked) | 25.35 | 6.237 |
| 43 | `NC(c1ccccc1)C1(CO)CCC1` (centres unmarked) | 17.1 | 8.274 |
| 44 | `O=C(Nc1cccnc1N1CCC(CO)CC1)C1CC1` | 56.91 | 34.4 |
| 45 | `CNC[C@@H]1C[C@@H](O)CN1` | -7.381 | -10.72 |
| 46 | `CS(=O)(=O)NCCN1CCOCC12CCC2` | 5.241 | 13.38 |
| 47 | `NCc1cccc(-c2ccccn2)n1` | 101.7 | 44.98 |
| 48 | `O=C(Cc1cccc(O)c1)N1CCCC2(CCNC2)C1` (centres unmarked) | -6.368 | 0.1624 |
| 49 | `CO[C@H]1CNCC1NC(=O)c1sccc1Br` (some centres unmarked) | 3.951 | -10.31 |
| 50 | `C=C(Br)CNC(C(=O)N1CCOCC1)C(C)C` (centres unmarked) | -3.058 | -6.851 |
| 51 | `CNCc1ncc(C2CC2)o1` | 15.23 | 10.99 |
| 52 | `O=S(=O)(CCNc1ccccn1)NCC1CCC1` | 72 | 62.91 |
| 53 | `CCc1n[nH]c(SCC(=O)Nc2ccc(Br)cn2)n1` | 77.35 | 75.71 |
| 54 | `Cc1ccc(C)c(-n2c(C)cc(=O)[nH]c2=O)c1` | -10.85 | -6.993 |
| 55 | `CN(CCNC1CCSC1)S(C)(=O)=O` (centres unmarked) | 4.803 | 5.526 |
| 56 | `CCNS(=O)(=O)C1CCN(Cc2cccn2C)C1` (centres unmarked) | 20.93 | -20.87 |
| 57 | `CCC(CC)N(C)C(=O)CNC(=O)C1CC1` | 13.12 | 6.684 |
| 58 | `N#Cc1ccc(CN2CCC3(CCC3O)CC2)cc1` (centres unmarked) | -17.96 | -23.53 |
| 59 | `CC(C)(CNC(=O)N1CCC1)c1ccc2c(c1)OCO2` | 42.68 | 15.7 |
| 60 | `O=C(COC(=O)c1cccs1)c1ccc[nH]1` | 78.86 | 109 |
| 61 | `Cn1cc(NC(=O)NC2CCCCC2)c(C(N)=O)n1` | 1.751 | 10.29 |
| 62 | `COCc1cc(O)ncn1` | 8.852 | 7.214 |
| 63 | `CC(C)(C)NCC(=O)Nc1ccc(Cl)cn1` | 27.28 | 19.75 |
| 64 | `CN(C)S(=O)(=O)NCC1CCCN(Cc2ccsc2)C1` (centres unmarked) | -22.37 | -10.56 |
| 65 | `NCC1CCCNC1=O` (centres unmarked) | 0.4246 | -1.357 |
| 66 | `NCC(=O)Cc1ccc(Br)cc1` | 26.18 | 33.21 |
| 67 | `COCC(=O)Nc1ccc(OCc2ccccn2)cc1` | 31.02 | 24.01 |
| 68 | `Cc1nnc(CNC(=O)C2CC(=O)N(C(C)(C)C)C2)o1` (centres unmarked) | 4.321 | 3.331 |
| 69 | `NCCCc1cccc(O)c1` | 9.178 | 15.81 |
| 70 | `Cc1cnc(CCNC(=O)NCC(O)C2CC2)s1` (centres unmarked) | -7.39 | -5.911 |
| 71 | `COc1ccccc1NC(=O)c1ccc(NC(C)=O)s1` | 27.45 | 35.99 |
| 72 | `CC1CNC(=O)CCN1Cc1ccccc1` (centres unmarked) | 4.686 | 3.28 |
| 73 | `Cc1nsc(NC(=O)N2CCCC(CN)C2)n1` (centres unmarked) | -0.8284 | -11.31 |
| 74 | `CCc1cc(C(=O)NC(CC)c2ncc[nH]2)[nH]n1` (centres unmarked) | 2.801 | -3.565 |
| 75 | `NC(=O)CO[C@H]1CCOC[C@H]1NC(=O)c1cc(Cl)c[nH]1` | 12.3 | -14.56 |
| 76 | `O=S(=O)(N1CCOCC1)N1CCCC(C(F)(F)F)C1` (centres unmarked) | 7.635 | -3.132 |
| 77 | `Cc1ccc(S(=O)(=O)NCCCN)cc1Br` | 42.88 | 24.18 |
| 78 | `O=C(NCc1nnc2n1CCC2)Nc1cn[nH]c1` | 5.786 | 11.23 |
| 79 | `Cc1cc(F)c(S(=O)(=O)NCCCN)cc1F` | 31.97 | 9.257 |
| 80 | `Cc1ccncc1C(=O)N1CCn2cncc2C1` | 13.42 | 0.6966 |

For reference, 8 entries once more:

Result for Cc1nnc(CNC(=O)C2CC(=O)N(C(C)(C)C)C2)o1 (centres unmarked) was Mtb glucose medium: 4.321%; Mtb cholesterol medium: 3.331%.
Result for CC1CNC(=O)CCN1Cc1ccccc1 (centres unmarked) was Mtb glucose medium: 4.686%; Mtb cholesterol medium: 3.28%.
Result for O=C(COC(=O)c1cccs1)c1ccc[nH]1 was Mtb glucose medium: 78.86%; Mtb cholesterol medium: 109%.
Result for c1ccc(N2CCN(c3ncccn3)CC2)nc1 was Mtb glucose medium: -15.24%; Mtb cholesterol medium: -35.58%.
Result for CCCSCCNC(=O)Nc1ccc2[nH]nnc2c1 was Mtb glucose medium: 38.22%; Mtb cholesterol medium: 21.36%.
Result for Cn1ccnc1C(N)c1cccc(F)c1 (centres unmarked) was Mtb glucose medium: 37.48%; Mtb cholesterol medium: 27.77%.
Result for O=C(NCc1cccnc1)C1COc2ccccc2O1 (centres unmarked) was Mtb glucose medium: 54.77%; Mtb cholesterol medium: 31.66%.
Result for COc1ccccc1NC(=O)c1ccc(NC(C)=O)s1 was Mtb glucose medium: 27.45%; Mtb cholesterol medium: 35.99%.

From ChEMBL document CHEMBL3988442, “University of Dundee, Small-Polar-MMV Screening Library” (2021).